For at least one entry, the source does not settle the construct or the ends of the probe. For part of these data: A negative result means that nothing was seen under these conditions. For part of these data: At least one verdict was read from the data and is not stated in words by the source.
Tests used:
Thrombin [1] = test: strand-displacement fluorescence (Rep-2); conditions: 5 mM Mg2+, 20 mM Tris-HCl pH 7.5 (22 °C), 100 mM NaCl, 0.1 mM EDTA, 5 mM MgCl2 (20 mM MgCl2 for DNAzyme), room temperature, indirect read-out by strand-displacement fluorescence, commercial protein, folded or branched DNA
Thrombin [2] = test: strand displacement with toehold-exchange amplification; conditions: 5 mM Mg2+; 20 mM Tris-HCl pH 7.5 (22 °C), 100 mM NaCl, 0.1 mM EDTA, 5 mM MgCl2 (20 mM MgCl2 for DNAzyme), room temperature; indirect read-out by strand-displacement fluorescence; commercial protein; folded or branched DNA
Thrombin [3] = test: strand-displacement fluorescence (Rep-4); conditions: feedback circuit; 20 mM Tris-HCl pH 7.5 (22 °C), 100 mM NaCl, 0.1 mM EDTA, 5 mM MgCl2 (20 mM MgCl2 for DNAzyme), room temperature; indirect read-out by strand-displacement fluorescence; commercial protein; folded or branched DNA
Thrombin [4] = test: strand-displacement fluorescence (Rep-1); conditions: 200 nM thrombin, no ATP, 5 mM Mg2+; 20 mM Tris-HCl pH 7.5 (22 °C), 100 mM NaCl, 0.1 mM EDTA, 5 mM MgCl2 (20 mM MgCl2 for DNAzyme), room temperature; indirect read-out by strand-displacement fluorescence; commercial protein; folded or branched DNA
Thrombin [5] = test: strand displacement with DNAzyme amplification; conditions: 20 mM Mg2+; 20 mM Tris-HCl pH 7.5 (22 °C), 100 mM NaCl, 0.1 mM EDTA, 5 mM MgCl2 (20 mM MgCl2 for DNAzyme), room temperature; indirect read-out by strand-displacement fluorescence; commercial protein; folded or branched DNA

“ATGTCAACGTAGTCCGTGGTAGGGCAGGTTGGGGTGACTTGGATAGGTAGGGTACGCT [Apt-Thr-4bp]”: binds (Thrombin [1]).
“CAATCTCTTTGTCCGTGGTAGGGCAGGTTGGGGTGACTTGCCATAGCCAGTAGTCTC [Apt-Thr-TE]”: binds (Thrombin [2]).
“CTTGAAGCAGCTAACCGATACAGTTGCAGGTCCAGGTTGTCCGTGGTAGGGCAGGTTGGGGTGACTTCGATAGAGA [Apt-Thr-stimulation (= Apt-Thr-inhibition)]”: binds (Thrombin [3]).
“GCAATCTCTTTCTTGGGGGAGTATTGCGGAGGAAAGTTGCCATGACCAGTAGTCTC [Apt-ATP-3bp-CTT]”: no binding (Thrombin [4]).
“GTGATGTCAACGTTGTCCGTGGTAGGGCAGGTTGGGGTGACCAAGATCGTGCG / CGCACGATCTTGCTTGGGGGAGTATTGCGGAGGAAAGTTGGATAGGTAGGGTACGCT [Apt-Thr-AND / Apt-ATP-AND combinatory aptamer]”: binds (Thrombin [1]; 200 nM thrombin with 1 mM ATP).
“TAAGTTGCTTGTCCGTGGTAGGGCAGGTTGGGGTGACTTATGAGATATCTCCGAGCC [Apt-Thr-DNAzyme]”: binds (Thrombin [5]).

Source: publication PMC8329073
